The other results are listed elsewhere or left out. Further columns of the screen follow, without active or inactive calls. The list favours compounds with an active or inconclusive main result. Words in brackets tell the shape of the fitted curve; partial curves, single points and poor fits give uncertain potencies.
Experiment: qHTS Assay to Find Inhibitors of Chronic Active B-Cell Receptor Signaling
Settings: ABC-DLBCL IkBa-CBG/CBR reporter, luminescence ratio (green luciferase fused to IkBa over red control in TMD8 lymphoma cells), 4 h
Summary of the method: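 Doxycycline induced both beetle luciferases in TMD8 lymphoma cells; IKK-driven degradation limits the IkappaBalpha-fused green signal, while red luminescence normalises for cell number and nonspecific effects. Compounds tested up to 46 uM, 4 hrs.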

[1] = measured here: CBR red luminescence, cell number
[2] = measured here: IkBa-CBG green luminescence

Compound | AC50 [1] | AC50 [2]
NS(=O)(=O)c1ccc(N=Cc2c(O)n(-c3nccs3)c(=O)c3ccccc23)cc1 | 2.82 µM [falling, partial curve, poor fit] | –
CCN1/C(=C\c2ccc3ccccc3[n+]2CC)Sc2cc(C)ccc21 | 35.5 µM [falling, single point] | 17.8 µM [rising, single point]
COc1ccc(C(=O)N/N=C\c2ccc(OC)c(COc3ccccc3Br)c2)c(OC)c1 | 2 µM [falling, full curve] | –
COCCn1c(SC(C)C(=O)NC2CC2)nnc1-c1cccc(C)c1 (stereo unspecified) | 6.51 µM [rising, full curve, poor fit] | –
Cc1ccc(C(=O)NNC(=O)Cc2csc(-c3csc(C)n3)n2)cc1 | 0.1 µM [rising, full curve, poor fit] | –
CCc1ccc(Cn2nnc(C(=O)Nc3cccc(C)c3)c2N)cc1 | 29.1 µM [rising, partial curve, poor fit] | –
Cc1c(OCC(=O)NCc2ccncc2)ccc2c3c(c(=O)oc12)CCCC3 | 0.562 µM [rising, full curve, poor fit] | –
Cc1nc(C(=O)N2CCCC(C(=O)c3cccc(OC(C)C)c3)C2)cs1 (stereo unspecified) | 2.51 µM [rising, partial curve, poor fit] | –
CC(Nc1nc(-c2cccnc2)nc2ccccc12)c1ccc(F)cc1 (stereo unspecified) | 10 µM [rising, partial curve, poor fit] | –
Cc1cc(C)c2cccc(NC(=S)NC(=O)c3ccccc3)c2n1 | 0.112 µM [falling, full curve, poor fit] | –
O=C(NCC1CCCO1)c1cc2cc(Cl)ccc2[nH]1 (stereo unspecified) | 0.794 µM [rising, full curve] | –
COc1cccc(NC(=O)CCN2CCN(C)CC2)c1 | 1.03 µM [rising, full curve] | –
Cc1ccc(N2C(=O)C(Cl)=C(NCc3ccccc3)C2=O)c(C)c1 | 6.31 µM [rising, single point] | –
C/C(=N\Nc1nc2ccccc2[nH]1)c1ccc2c(c1)OCCO2 | 8.91 µM [falling, partial curve, poor fit] | –
CC(C)(CO)NS(=O)(=O)c1ccc2c(c1)Cc1cc(S(=O)(=O)NC(C)(C)CO)ccc1-2 | 31.6 µM [rising, single point] | –
COC(=O)c1ccc2nc(NC(=O)C3CC3)sc2c1 | 35.5 µM [falling, partial curve, poor fit] | –
CN=C1c2cc3c(Br)c(OC)ccc3n2CCN1C | 20.6 µM [rising, single point] | –
Cc1cc(=O)[nH]c(SCC(=O)NCC2CCCCC2)c1C#N | 11.2 µM [rising, single point] | –
CC(C)=CCC/C(C)=C/CNC(=O)C[C@H]1C[C@H](C(=O)N(C(C)C)C(C)C)[C@@]2(C)c3[nH]c4cc(CCC(=O)N(C)C)ccc4c3CCN2C1=O | 32.6 µM [falling, single point] | –
COc1cccc2c1O/C(=N\O)C(C(=O)Nc1ccc(C)cc1)C2 (stereo unspecified) | 14.1 µM [falling, partial curve] | –
CC(=O)Nc1ccc(NC(=O)c2cc(-c3ccc(C)cc3O)n[nH]2)cc1 | 15.8 µM [falling, partial curve, poor fit] | –

Random excerpt: 4 records from the list
Compound | AC50 [1] | AC50 [2]
CC(=O)Nc1ccc(NC(=O)c2cc(-c3ccc(C)cc3O)n[nH]2)cc1 | 15.8 µM [falling, partial curve, poor fit] | –
Cc1ccc(N2C(=O)C(Cl)=C(NCc3ccccc3)C2=O)c(C)c1 | 6.31 µM [rising, single point] | –
Cc1cc(C)c2cccc(NC(=S)NC(=O)c3ccccc3)c2n1 | 0.112 µM [falling, full curve, poor fit] | –
Cc1nc(C(=O)N2CCCC(C(=O)c3cccc(OC(C)C)c3)C2)cs1 (stereo unspecified) | 2.51 µM [rising, partial curve, poor fit] | –

Additional structures follow:

Compound | AC50 [1] | AC50 [2]
COc1ccc(N2CCN(c3ccc(C(=O)O)cc3[N+](=O)[O-])CC2)cc1 | 11.2 µM [falling, partial curve] | –
COc1ccc(C(CNC(=O)C(C)Oc2ccc(Br)cc2)N2CCCCC2)cc1 (stereo unspecified) | – | 32.6 µM [falling, partial curve, poor fit]
Nc1ncnc2c1ncn2[C@@H]1O[C@H](CNCc2ccc(-c3cc(C(F)(F)F)ccc3Cl)o2)[C@@H](O)[C@H]1O | – | 8.2 µM [falling, partial curve]
CC(C)C(NCc1c(Cl)cccc1Cl)C(=O)O (stereo unspecified) | 3.55 µM [falling, single point] | –
O=C(NC(=S)N1CCCC1)c1ccccc1F | 6.51 µM [rising, single point] | –
O=C(NCC(=O)N1CCC(Cc2ccccc2)CC1)c1ccc(Cl)cc1 | 35.5 µM [falling, single point] | –
N#C/C(=N\Nc1ccccc1)C(N)=S | 25.1 µM [falling, single point] | –
COc1ccc(C2CC(c3cccs3)=Nc3ccccc3S2)cc1OC (stereo unspecified) | 0.184 µM [rising, full curve] | –
Cc1ccc(CC(=O)Nc2ncc([N+](=O)[O-])s2)cc1 | 11.2 µM [falling, partial curve] | –
O=C(N/N=C/c1ccc(-c2ccc(S(=O)(=O)Nc3ncccn3)cc2)o1)c1cc2ccccc2cc1O | 8.2 µM [falling, partial curve, poor fit] | –
O=C(Nc1ccc2oc(-c3ccc4ccccc4c3)nc2c1)c1cccs1 | 0.651 µM [rising, full curve, poor fit] | –
CCS(=O)(=O)c1ncc(Cl)c(C(=O)Nc2ccc(S(=O)(=O)N(C)c3ccccc3)cc2)n1 | 6.31 µM [falling, full curve] | –
O=C(COc1ccc(Cl)cc1)N1CCCCC1 | 6.51 µM [rising, single point] | –
CCOCc1nnc(NC(=O)CCc2ccccc2)s1 | 1.84 µM [rising, full curve, poor fit] | –
CC(=O)N1CCN(CCS(=O)(=O)c2cc(Cl)ccc2Cl)CC1 | 18.4 µM [falling, partial curve, poor fit] | –
CC(C)NCCCOc1ccc(Cl)cc1Br | 10 µM [falling, partial curve] | –
CCOC(=O)c1c(-c2cccs2)csc1NC(C)=O | 11.6 µM [rising, partial curve] | –
O=C(Cn1cc(SCc2ccccc2Cl)c2ccccc21)N1CCOCC1 | 29.1 µM [falling, single point] | –
C/C(CC(=O)Nc1cccnc1)=N\NC(=O)C(C)Oc1ccc(Cl)cc1Cl (stereo unspecified) | 14.1 µM [falling, partial curve, poor fit] | –
Cn1nc(C(C)(C)C)c(NC(=O)c2ccc(F)cc2)c1C(C)(C)C | 35.5 µM [rising, single point] | –
COc1ccccc1NC(=O)/C=C/c1ccc2c(c1)OCO2 | 10 µM [falling, partial curve] | –

Compound | AC50 [1] | AC50 [2]
CC(=O)Nc1ccc(S(=O)(=O)N2CCN(C(=O)N3CCOCC3)CC2)cc1 | 0.731 µM [falling, partial curve, poor fit] | –
CCOC(=O)Cc1csc(NC(=O)CSc2nc3cccnc3n2CC)n1 | 1.58 µM [falling, partial curve, poor fit] | –
Cc1ccc(-c2nnc(NC(=O)c3ccco3)s2)cc1 | 2.51 µM [falling, full curve] | –
Nc1nc(CCl)nc(N(c2ccccc2)c2ccccc2)n1 | 7.94 µM [falling, partial curve, poor fit] | –
O=C(c1ccc2c(c1)OCO2)[C@@H]1[C@@H]2C(=O)N(C3CCCCC3)C(=O)[C@@H]2C2c3ccccc3C=CN21 (stereo partly specified) | 7.94 µM [falling, partial curve] | –
Fc1ccccc1N1CCN(c2nc3ccccc3n3nnnc23)CC1 | 7.31 µM [falling, partial curve, poor fit] | –
Cc1c(C(=O)N(CC(C)C)c2c(N)n(Cc3ccccc3)c(=O)[nH]c2=O)sc2nc3n(c(=O)c12)CCC3 | 0.92 µM [rising, full curve, poor fit] | –
O=C(/C=C/c1ccc(Cl)c(Cl)c1)N1CCc2ccccc21 | 18.4 µM [rising, single point] | –
O=C(Cc1ccccc1)NCC(=O)OCC(=O)c1ccc([N+](=O)[O-])cc1 | 18.4 µM [falling, partial curve, poor fit] | –
CN1CCN(C(=O)c2ccc(COc3ccc(Cl)cc3Cl)cc2)CC1 | 32.6 µM [falling, single point] | –
COc1ccc(-c2csc(N(CC3CCCO3)C(=O)c3ccco3)n2)cc1 (stereo unspecified) | 16.4 µM [falling, single point] | –
CC(C)Oc1ccc(/C=N/NC(N)=S)cc1 | 29.1 µM [rising, single point] | 32.6 µM [falling, partial curve, poor fit]
CCOC(=O)CSc1nnc(-c2cccc(Cl)c2)n1CC | 2.82 µM [rising, full curve, poor fit] | –
CCC(=O)Nc1cc(-c2nn3c(C)nnc3s2)ccc1C | 11.2 µM [rising, partial curve] | –
C/C(=N\NC(=S)NC1CCCCC1)c1ccc(C)o1 | 2.51 µM [rising, partial curve, poor fit] | 12.6 µM [falling, partial curve]
CCNC(=O)c1c(O)c2cccc3c2n(c1=O)CC3 | 32.6 µM [rising, single point] | –
COc1ccc(C(=O)NN/C(C)=C/C(=O)C(F)(F)C(F)(F)C(F)(F)F)cc1 | 2.06 µM [falling, full curve] | –
CN1C(=O)c2ccccc2C(C(=O)O)C1c1cccc(Cl)c1 (stereo unspecified) | 2.06 µM [rising, partial curve, poor fit] | –
COc1cccc(C(=O)NC(=S)Nc2ccc(N(C)C)cc2)c1 | 0.164 µM [falling, full curve] | –
COCc1cc(/C=N\NC(=O)COc2ccccc2)ccc1OC | 1.46 µM [rising, full curve, poor fit] | –
O=C(Nc1nc2cc3c(cc2s1)OCCO3)c1ccncc1 | 7.94 µM [falling, partial curve, poor fit] | –
